Reference: patent US10520504B2 (priority 2014, dated 2019)

Test: general procedure: Fmoc solid-phase peptide synthesis; Rink-amide ChemMatrix; DIC and oxyma; HBTU/DIPEA for fragment coupling
Conditions: whole synthesis, detection at 490 nm (prep), scale 0.03 mmol

Substance: UBI29-41 conjugated with MR-AAPV-K(NBD)-PEG-OH (methyl red quencher, NBD label; enzyme cleavable peptide sequence)
- final HPLC purity: >95%
